From patent US20210071191

Target: T1, Flag-OsGRF4 (ngr2) (Oryza sativa) (UniProt Q6ZIK5)
T1 sequence (limits assumed): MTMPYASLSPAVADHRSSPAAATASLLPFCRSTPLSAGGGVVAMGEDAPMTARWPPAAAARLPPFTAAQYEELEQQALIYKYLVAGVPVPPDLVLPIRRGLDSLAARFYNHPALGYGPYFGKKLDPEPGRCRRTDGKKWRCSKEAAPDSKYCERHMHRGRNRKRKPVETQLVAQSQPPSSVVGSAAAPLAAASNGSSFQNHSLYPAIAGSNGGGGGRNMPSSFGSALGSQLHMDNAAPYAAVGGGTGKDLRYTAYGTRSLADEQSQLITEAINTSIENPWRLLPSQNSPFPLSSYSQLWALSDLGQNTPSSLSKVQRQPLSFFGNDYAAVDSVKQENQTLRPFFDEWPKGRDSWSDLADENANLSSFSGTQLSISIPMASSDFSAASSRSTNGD
Test: binding assay
Conditions: ChIP-seq, most abundant enriched motif; protein in cells; protein details: Flag, p35S::flag-OsGRF4ngr2 transgenic rice

“GGCGGCGGCGGC (double strand) [ChIP-seq enriched motif]”: binds.

Construct, isoform or probe ends are uncertain for at least one entry. Results from cells or extracts need not show a direct contact. Tags and fusion partners may be left off the protein sequences shown.
